Among the data in publication PMC5469495, “MicroRNA319-regulated TCPs interact with FBHs and PFT1 to activate CO transcription and control flowering time in Arabidopsis” (PLoS Genetics, 2017) are binding values, retold here.

Amino acid sequences for entries named in this document (tags omitted). A change or cut given only in a name is not applied to a line headed by its entry.
UniProt Q9C690: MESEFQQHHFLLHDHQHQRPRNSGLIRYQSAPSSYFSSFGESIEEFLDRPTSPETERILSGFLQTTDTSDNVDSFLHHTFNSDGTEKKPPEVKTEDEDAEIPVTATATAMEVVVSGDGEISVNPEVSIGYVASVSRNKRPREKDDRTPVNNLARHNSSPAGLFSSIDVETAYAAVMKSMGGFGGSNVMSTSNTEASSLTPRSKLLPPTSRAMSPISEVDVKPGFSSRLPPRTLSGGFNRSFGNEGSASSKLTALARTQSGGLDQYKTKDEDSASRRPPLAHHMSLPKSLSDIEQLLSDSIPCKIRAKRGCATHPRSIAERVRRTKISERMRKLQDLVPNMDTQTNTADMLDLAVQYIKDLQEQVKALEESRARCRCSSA
UniProt Q66GR3: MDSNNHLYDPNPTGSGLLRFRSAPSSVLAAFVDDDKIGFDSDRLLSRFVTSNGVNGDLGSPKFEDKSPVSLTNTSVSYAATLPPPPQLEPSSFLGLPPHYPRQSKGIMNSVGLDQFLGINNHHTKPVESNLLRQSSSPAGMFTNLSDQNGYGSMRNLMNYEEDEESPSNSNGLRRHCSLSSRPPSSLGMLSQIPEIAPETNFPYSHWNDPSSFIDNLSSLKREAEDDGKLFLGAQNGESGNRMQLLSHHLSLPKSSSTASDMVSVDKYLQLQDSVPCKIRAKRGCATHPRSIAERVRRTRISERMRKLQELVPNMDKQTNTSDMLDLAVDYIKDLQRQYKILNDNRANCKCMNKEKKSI
UniProt Q9C8P8: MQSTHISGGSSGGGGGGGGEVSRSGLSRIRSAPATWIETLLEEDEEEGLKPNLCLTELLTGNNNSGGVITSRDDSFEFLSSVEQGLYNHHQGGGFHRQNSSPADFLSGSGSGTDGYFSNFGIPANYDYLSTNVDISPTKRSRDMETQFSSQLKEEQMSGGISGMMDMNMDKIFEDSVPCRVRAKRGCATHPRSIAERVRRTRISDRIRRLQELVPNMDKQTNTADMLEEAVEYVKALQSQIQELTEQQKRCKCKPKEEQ
UniProt Q9M0R0: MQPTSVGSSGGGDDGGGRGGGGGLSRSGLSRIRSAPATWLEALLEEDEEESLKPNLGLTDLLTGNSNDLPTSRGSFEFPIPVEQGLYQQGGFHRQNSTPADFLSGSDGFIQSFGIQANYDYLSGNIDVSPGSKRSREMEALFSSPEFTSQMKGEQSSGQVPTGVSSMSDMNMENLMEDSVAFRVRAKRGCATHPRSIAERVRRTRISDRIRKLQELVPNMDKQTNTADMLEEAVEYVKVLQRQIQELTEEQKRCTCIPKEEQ

Assay [1] addresses T1, CDF2 (Arabidopsis thaliana) (UniProt Q93ZL5).
T1 sequence: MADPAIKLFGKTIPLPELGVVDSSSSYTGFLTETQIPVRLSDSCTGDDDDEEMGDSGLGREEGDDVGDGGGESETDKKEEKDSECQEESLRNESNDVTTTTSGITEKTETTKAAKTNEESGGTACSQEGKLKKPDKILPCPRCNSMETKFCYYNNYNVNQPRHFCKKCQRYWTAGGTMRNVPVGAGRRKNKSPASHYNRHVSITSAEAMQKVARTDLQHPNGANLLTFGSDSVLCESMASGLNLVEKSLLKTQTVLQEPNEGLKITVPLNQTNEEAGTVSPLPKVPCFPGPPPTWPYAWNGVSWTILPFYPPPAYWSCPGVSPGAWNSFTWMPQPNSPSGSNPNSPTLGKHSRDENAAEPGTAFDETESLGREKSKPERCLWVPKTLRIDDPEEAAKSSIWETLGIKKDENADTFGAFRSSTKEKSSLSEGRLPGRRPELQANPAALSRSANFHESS
Nature of the assay: two-hybrid; GAL4-AD and GAL4-BD derivatives co-transformed into yeast strain AH109; grown on SD-L/W, screened on SD-L/W/H or SD-L/W/H/A with 3-AT.

Assay [2] deals with T2, CDF1 (Arabidopsis thaliana) (UniProt Q8W1E3).
T2 sequence: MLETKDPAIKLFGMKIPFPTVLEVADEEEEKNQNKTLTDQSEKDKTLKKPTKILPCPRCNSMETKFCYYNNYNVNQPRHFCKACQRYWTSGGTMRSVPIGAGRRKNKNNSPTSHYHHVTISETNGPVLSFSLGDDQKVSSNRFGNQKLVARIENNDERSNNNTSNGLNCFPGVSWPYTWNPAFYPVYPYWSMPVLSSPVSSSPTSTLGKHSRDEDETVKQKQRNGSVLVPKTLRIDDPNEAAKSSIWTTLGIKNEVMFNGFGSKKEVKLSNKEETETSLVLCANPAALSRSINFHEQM
The description is as above.

Assay [3] deals with T3, CDF3 (Arabidopsis thaliana) (UniProt Q8LFV3).
T3 sequence: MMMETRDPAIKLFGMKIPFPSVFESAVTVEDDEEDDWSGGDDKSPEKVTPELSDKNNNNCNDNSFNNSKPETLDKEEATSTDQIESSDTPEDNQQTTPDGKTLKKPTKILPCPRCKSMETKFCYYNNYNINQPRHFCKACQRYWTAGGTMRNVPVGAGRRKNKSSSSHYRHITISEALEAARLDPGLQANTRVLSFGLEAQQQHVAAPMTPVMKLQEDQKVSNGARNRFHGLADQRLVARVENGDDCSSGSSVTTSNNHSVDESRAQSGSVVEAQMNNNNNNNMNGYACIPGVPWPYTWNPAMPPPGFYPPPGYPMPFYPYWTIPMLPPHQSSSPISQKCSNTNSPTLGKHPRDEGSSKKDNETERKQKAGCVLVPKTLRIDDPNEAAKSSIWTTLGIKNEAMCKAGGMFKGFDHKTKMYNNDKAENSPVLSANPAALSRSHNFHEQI
The assay is described as above.

Assay [4] concerns the target T4, PHYTOCHROME AND FLOWERING TIME 1 (Arabidopsis thaliana) (UniProt Q7XYY2).
T4 sequence: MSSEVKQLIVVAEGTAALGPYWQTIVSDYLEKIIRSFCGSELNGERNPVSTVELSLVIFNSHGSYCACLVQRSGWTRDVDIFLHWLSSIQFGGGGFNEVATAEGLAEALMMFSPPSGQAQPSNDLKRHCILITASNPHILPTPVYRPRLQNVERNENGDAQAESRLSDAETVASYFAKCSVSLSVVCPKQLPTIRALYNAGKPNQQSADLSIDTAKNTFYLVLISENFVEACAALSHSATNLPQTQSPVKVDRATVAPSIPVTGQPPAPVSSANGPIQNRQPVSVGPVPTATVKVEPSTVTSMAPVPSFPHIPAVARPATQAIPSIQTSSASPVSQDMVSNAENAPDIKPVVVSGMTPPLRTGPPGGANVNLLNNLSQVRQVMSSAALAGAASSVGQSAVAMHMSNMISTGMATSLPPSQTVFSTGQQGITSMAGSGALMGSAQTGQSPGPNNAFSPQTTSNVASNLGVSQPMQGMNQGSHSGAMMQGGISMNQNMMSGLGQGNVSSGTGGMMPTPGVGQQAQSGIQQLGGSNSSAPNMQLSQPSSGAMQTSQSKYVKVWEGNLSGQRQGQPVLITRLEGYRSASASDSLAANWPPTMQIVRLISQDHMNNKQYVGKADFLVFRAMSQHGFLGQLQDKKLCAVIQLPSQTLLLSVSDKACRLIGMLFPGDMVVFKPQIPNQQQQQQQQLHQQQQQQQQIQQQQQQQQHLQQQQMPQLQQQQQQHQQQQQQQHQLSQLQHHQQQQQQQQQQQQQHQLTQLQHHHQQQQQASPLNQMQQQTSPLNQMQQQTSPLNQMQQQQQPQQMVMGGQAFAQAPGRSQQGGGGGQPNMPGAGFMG
The assay is described as above.

The target of assay [5] is T4, PHYTOCHROME AND FLOWERING TIME 1 (Arabidopsis thaliana). Put plainly: split reporter; LUC complementation imaging (LCI): nLUC and cLUC fusions co-infiltrated by Agrobacterium into N. benthamiana leaves; LUC activity 48 h after infiltration.
Assay [6] shares this target. Put plainly: co-IP; GFP- and Myc-fused proteins transiently co-expressed in N. benthamiana leaves, collected 48 h after infiltration; anti-GFP- or anti-Myc-conjugated agarose beads; lysis buffer 50 mM Tris-HCl pH 7.5, 150 mM NaCl, 5 mM EDTA, 0.1% Triton X-100, 0.2% NP-40.
The target in assay [7] is T1, CDF2 (Arabidopsis thaliana). Put plainly: split reporter; LUC complementation imaging (LCI): nLUC and cLUC fusions co-infiltrated by Agrobacterium into N. benthamiana leaves; LUC activity 48 h after infiltration.
Assay [8] has as its target T2, CDF1 (Arabidopsis thaliana). The assay is described as above.
In assay [9] the target is T3, CDF3 (Arabidopsis thaliana). Described as above.
Assay [10] addresses FBH3 (Arabidopsis thaliana) (UniProt Q9C690). Put plainly: two-hybrid; GAL4-AD and GAL4-BD derivatives co-transformed into yeast strain AH109; grown on SD-L/W, screened on SD-L/W/H or SD-L/W/H/A with 3-AT.
In assay [11] the target is FBH4 (Arabidopsis thaliana) (UniProt Q66GR3). The description is as above.
For assay [12], the target named is FLOWERING BHLH 1 (Arabidopsis thaliana) (UniProt Q9C8P8). The assay is described as above.
For assay [13], the target named is FBH2 (Arabidopsis thaliana) (UniProt Q9M0R0). The assay is described as above.
For assay [14], the target named is FBH3 (Arabidopsis thaliana) (UniProt Q9C690). Nature of the assay: split reporter; LUC complementation imaging (LCI): nLUC and cLUC fusions co-infiltrated by Agrobacterium into N. benthamiana leaves; LUC activity 48 h after infiltration.
Assay [15] addresses FBH4 (Arabidopsis thaliana) (UniProt Q66GR3). The assay is described as above.
In assay [16] the target is FLOWERING BHLH 1 (Arabidopsis thaliana) (UniProt Q9C8P8). The description is as above.
For assay [17], the target named is FBH2 (Arabidopsis thaliana) (UniProt Q9M0R0). The assay is described as above.
Assay [18] concerns the target FBH1-GFP (Arabidopsis thaliana) (UniProt Q9C8P8). Put plainly: co-IP; total proteins of FBH1-GFP/TCP4-Myc double transgenic Arabidopsis plants; anti-GFP- or anti-Myc-conjugated agarose beads; lysis buffer 50 mM Tris-HCl pH 7.5, 150 mM NaCl, 5 mM EDTA, 0.1% Triton X-100, 0.2% NP-40; single transgenic plants as controls.

Results are given in words; binding and its absence hold for the method and conditions named. For part of these data: Binding calls can cover weak binding; strength is not graded here. For part of these data: Binding seen in cells or lysates may run through a third protein. For part of these data: Sequences can lack the tags named with a protein.

Consider FBH3 (from UniProt Q9C690), for which the binding entry in assay [1] is “no binding”; in assay [2], “no binding”; in [3], “no binding”; in assay [4], “binds”; in [5] it was “binds”.
As for FBH2 (from UniProt Q9M0R0), the binding entry in [1] is “no binding”; in [2], “no binding”; in [3] it was “no binding”; in assay [4], “binds”; in assay [5], “binds”.
FLOWERING BHLH 1 (from UniProt Q9C8P8): the binding result in assay [1] was “no binding”; in assay [2], “no binding”; in assay [3], “no binding”; in assay [4], “binds”; in assay [6] it was “binds”; in assay [7], “no binding”. The binding entry in [8] is “no binding”; in [9], “no binding”; in [5], “binds”.
For the molecule FBH4 (from UniProt Q66GR3), the binding entry in assay [1] was “no binding”; in assay [2], “no binding”; in [3] it was “no binding”; in [4] it was “binds”; in assay [5] it was “binds”.

B1: TCP4 (protein, UniProt Q8LPR5 1-420)
chain: MSDDQFHHPPPPSSMRHRSTSDAADGGCGEIVEVQGGHIVRSTGRKDRHSKVCTAKGPRDRRVRLSAHTAIQFYDVQDRLGFDRPSKAVDWLIKKAKTSIDELAELPPWNPADAIRLAAANAKPRRTTAKTQISPSPPPPQQQQQQQQLQFGVGFNGGGAEHPSNNESSFLPPSMDSDSIADTIKSFFPVIGSSTEAPSNHNLMHNYHHQHPPDLLSRTNSQNQDLRLSLQSFPDGPPSLLHHQHHHHTSASASEPTLFYGQSNPLGFDTSSWEQQSSEFGRIQRLVAWNSGGGGGATDTGNGGGFLFAPPTPSTTSFQPVLGQSQQLYSQRGPLQSSYSPMIRAWFDPHHHHQSISTDDLNHHHHLPPPVHQSAIPGIGFASGEFSSGFRIPARFQGQEEEQHDGLTHKPSSASSISRH
Take B1: the binding entry in assay [10], in [11], in assay [12], in assay [13], in [14] and in [15] was “binds” throughout. The binding entry in [16] and in assay [17] was “binds” in each case.

B2: TCP4-Myc (protein, UniProt Q8LPR5 1-420)
chain: MSDDQFHHPPPPSSMRHRSTSDAADGGCGEIVEVQGGHIVRSTGRKDRHSKVCTAKGPRDRRVRLSAHTAIQFYDVQDRLGFDRPSKAVDWLIKKAKTSIDELAELPPWNPADAIRLAAANAKPRRTTAKTQISPSPPPPQQQQQQQQLQFGVGFNGGGAEHPSNNESSFLPPSMDSDSIADTIKSFFPVIGSSTEAPSNHNLMHNYHHQHPPDLLSRTNSQNQDLRLSLQSFPDGPPSLLHHQHHHHTSASASEPTLFYGQSNPLGFDTSSWEQQSSEFGRIQRLVAWNSGGGGGATDTGNGGGFLFAPPTPSTTSFQPVLGQSQQLYSQRGPLQSSYSPMIRAWFDPHHHHQSISTDDLNHHHHLPPPVHQSAIPGIGFASGEFSSGFRIPARFQGQEEEQHDGLTHKPSSASSISRH
With B2, in assay [18], the binding result was “binds”.
